This is one part of the list. For some of these results: Construct or isoform of the protein are uncertain.
What was measured:
Assay in all cases: protein microarray (ProtoArray v5.0), streptavidin-Alexa Fluor 647
Conditions in all cases: 3'-biotin; 20 mM Tris (pH 7.5), 5 mM MgCl2, 100 mM KCl, 0.1% Tween-20, A/T-rich and random oligonucleotide blockers; temperature not stated; high values mean tight binding
[1] = tested on: CLEC7A (human)
[2] = tested on: CLIC2 (human)
[3] = tested on: CLMN (human)
[4] = tested on: CLP1 (human)
[5] = tested on: CLPS (human)
[6] = target: T1, CLTA (UniProt P09496)
T1 sequence: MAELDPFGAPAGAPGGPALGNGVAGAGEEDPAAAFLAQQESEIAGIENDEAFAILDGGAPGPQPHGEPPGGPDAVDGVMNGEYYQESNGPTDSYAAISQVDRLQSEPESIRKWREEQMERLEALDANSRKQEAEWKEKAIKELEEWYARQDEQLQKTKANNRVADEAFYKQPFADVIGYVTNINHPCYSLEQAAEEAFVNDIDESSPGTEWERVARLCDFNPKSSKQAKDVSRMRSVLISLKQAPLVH

[7] = tested on: CLTB (human)
[8] = tested on: CLUAP1 (human)
[9] = tested on: CLUL1 (human)
[10] = tested on: CMRF35-like molecule 2 (human)

## GGGAGGCTGAGGCAGG [G4-1 biotinylated (PQS2)]
[1]
  binding signal: -0.287 z-score
[2]
  binding signal: -0.291 z-score
[3]
  binding signal: -0.314 z-score
[4]
  binding signal: -0.343 z-score
[5]
  binding signal: -0.314 z-score
[6]
  binding signal: -0.345 z-score
[7]
  binding signal: -0.362 z-score
[8]
  binding signal: -0.31 z-score
[9]
  binding signal: -0.351 z-score
[10]
  binding signal: -0.263 z-score
